Source: patent US10730833B2, “Synthesis of diindolylmethanes and indolo[3,2-b]carbazoles, compounds formed thereby, and pharmaceutical compositions containing them” (Wisconsin Alumni Research Foundation, priority 2014, dated 2020)
For at least one compound, name, drawing or mass did not settle the structure.

By UniProt entry, the sequences of proteins in these tests, tags left out. Residues count along the entry.
UniProt P35869, 11-848: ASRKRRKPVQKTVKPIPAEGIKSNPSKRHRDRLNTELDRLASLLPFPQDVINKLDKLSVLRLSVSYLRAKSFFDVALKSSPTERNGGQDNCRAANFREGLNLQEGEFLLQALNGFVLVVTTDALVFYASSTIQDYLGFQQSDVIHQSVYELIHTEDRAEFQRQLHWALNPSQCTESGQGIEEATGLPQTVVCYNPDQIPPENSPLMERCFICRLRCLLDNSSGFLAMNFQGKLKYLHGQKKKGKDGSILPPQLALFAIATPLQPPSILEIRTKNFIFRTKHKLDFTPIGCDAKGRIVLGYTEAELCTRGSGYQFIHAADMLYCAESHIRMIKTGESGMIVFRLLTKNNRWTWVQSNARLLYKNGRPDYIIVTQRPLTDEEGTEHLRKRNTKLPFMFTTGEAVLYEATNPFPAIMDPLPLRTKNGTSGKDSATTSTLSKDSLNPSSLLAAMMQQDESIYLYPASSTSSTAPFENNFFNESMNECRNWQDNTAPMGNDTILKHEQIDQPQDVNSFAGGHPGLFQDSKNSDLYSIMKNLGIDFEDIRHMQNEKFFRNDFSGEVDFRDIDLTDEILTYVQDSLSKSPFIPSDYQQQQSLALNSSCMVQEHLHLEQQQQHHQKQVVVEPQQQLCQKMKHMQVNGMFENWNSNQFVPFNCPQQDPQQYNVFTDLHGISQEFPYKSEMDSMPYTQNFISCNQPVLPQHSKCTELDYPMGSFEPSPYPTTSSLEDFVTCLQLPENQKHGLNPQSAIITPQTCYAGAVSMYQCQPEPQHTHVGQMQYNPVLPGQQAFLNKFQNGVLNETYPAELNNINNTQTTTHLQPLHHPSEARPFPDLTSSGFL

Molecular target: AhR (Homo sapiens (Human), UniProt P35869)
Experiment: ethoxyresorufin-O-deethylase (EROD) assay, AhR activation in HepG2 cells
Format: cell-based
Conditions: at 10 nM concentration; data not shown
Method: The human Hep G2 cell line from the Small Molecule Screening and Synthesis Facility (UWCCC, Madison, Wis.) and was maintained in DMEM medium supplemented with 10% FBS. Cells were incubated at 37° C. in a humidified atmosphere supplemented with 5% CO2.
Preparation of cells: Cells were cleaved from T75 flasks with 0.05% trypsin. The cells were then collected by spinning at 1 g for 4 min. Excess media containing trypsin was removed from the pellet, which was then re-suspended in growth media. The cells were then counted using a hemocytometer. Cells were plated in sterile 96-well clear bottom black culture plates at a density of 20,000 cells per well in 0.1 mL of media. The cells were then incubated for 24 h at 37° C. in a humidified atmosphere supplemented with 5% CO2.
The ethoxyresorufin-O-deethylase (EROD) assay was performed on cell cultures of human Hep G2 cells. Briefly, 24 h after plating, cells in 96-well plates were treated with AhR agonists and allowed to incubate for 24 h. Each well was then rinsed with 200 uL of PBS buffer twice. To each well was then added 100 uL of 150 nM solution of 7-ethoxyresurufin and allowed to incubate for 2 h. Fluorescence measurements were obtained with a Safire II micro plate reader with excitation at 520 nm with a 25 nm bandwidth and emission at 595 nm with a 20 nm bandwidth.
The bioactivity of malassezin analogs was then investigated. […]

| Structure (SMILES) | fold increase of signal over DMSO treatment [fold] |
| --- | --- |
| O=Cc1c(Cc2c[nH]c3ccc(Cl)cc23)[nH]c2ccccc12 [Compound 11a] | 5 |
| Cn1cc(Cc2[nH]c3ccccc3c2C=O)c2ccccc21 [Compound 11d] | 6 |
